Assay results published in article PMC6588571.
Results are given in words; binding and its absence hold for the method and conditions named. Some results given as binding are weak or reduced against the parent protein; the word gives no strength. Sequences can lack the tags named with a protein.

T1: Hrr25(1–394) fused to the Gal4 DNA-binding domain (S. cerevisiae) (UniProt P29295)
T1 sequence: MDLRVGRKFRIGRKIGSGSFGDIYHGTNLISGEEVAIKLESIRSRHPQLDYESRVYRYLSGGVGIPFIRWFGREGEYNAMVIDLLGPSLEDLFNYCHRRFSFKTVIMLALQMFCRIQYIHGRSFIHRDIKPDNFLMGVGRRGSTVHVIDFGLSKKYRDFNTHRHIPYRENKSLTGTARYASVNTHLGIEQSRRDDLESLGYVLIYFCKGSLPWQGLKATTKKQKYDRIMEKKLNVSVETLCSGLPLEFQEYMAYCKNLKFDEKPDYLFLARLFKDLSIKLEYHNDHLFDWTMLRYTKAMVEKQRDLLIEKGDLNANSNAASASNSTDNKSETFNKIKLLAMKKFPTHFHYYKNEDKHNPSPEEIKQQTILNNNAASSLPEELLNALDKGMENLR

T2: Hrr25(1–394).K38R fused to the Gal4 DNA-binding domain (S. cerevisiae) (UniProt P29295)
T2 sequence: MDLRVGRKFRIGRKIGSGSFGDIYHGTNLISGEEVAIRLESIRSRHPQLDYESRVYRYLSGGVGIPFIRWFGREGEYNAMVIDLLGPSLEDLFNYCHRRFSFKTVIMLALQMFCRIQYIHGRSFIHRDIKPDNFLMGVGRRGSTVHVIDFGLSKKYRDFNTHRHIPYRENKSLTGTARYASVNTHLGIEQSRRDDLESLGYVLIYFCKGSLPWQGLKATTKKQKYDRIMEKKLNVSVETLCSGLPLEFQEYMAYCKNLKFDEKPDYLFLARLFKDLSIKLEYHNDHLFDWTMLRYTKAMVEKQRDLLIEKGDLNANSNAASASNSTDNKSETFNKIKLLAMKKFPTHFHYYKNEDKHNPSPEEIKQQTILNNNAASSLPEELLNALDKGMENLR

T3: C-terminally TAP-tagged Tsr1 (S. cerevisiae) (UniProt Q07381)
T3 sequence: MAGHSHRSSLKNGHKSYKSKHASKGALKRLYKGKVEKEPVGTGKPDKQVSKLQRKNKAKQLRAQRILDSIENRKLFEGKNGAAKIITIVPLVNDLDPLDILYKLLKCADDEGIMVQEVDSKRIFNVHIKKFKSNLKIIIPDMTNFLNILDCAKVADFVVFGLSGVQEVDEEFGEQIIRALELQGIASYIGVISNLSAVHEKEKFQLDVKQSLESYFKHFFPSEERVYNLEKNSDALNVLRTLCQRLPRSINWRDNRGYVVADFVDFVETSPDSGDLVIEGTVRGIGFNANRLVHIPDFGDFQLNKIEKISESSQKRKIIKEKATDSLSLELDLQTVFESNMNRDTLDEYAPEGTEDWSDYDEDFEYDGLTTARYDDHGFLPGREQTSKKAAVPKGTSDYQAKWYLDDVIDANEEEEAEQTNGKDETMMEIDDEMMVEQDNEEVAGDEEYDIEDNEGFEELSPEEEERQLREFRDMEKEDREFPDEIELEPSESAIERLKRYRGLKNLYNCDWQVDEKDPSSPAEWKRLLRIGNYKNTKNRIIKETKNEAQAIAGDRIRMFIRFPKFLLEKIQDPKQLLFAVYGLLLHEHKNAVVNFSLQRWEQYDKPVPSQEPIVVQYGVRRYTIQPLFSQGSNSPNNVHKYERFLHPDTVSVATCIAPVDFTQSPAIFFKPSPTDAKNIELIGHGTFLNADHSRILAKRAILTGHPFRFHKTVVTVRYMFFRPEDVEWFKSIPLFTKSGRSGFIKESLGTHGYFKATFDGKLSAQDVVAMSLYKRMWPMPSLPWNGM

B1: Ltv1.S6>E fused to the Gal4 activation domain (protein, UniProt P34078 1-463)
chain: MSKKFSSKNSQRYVVVHRPHDDPSFYDTDASAHVLVPVSNPNKTSPEADLRKKDVSSTKPKGRRAHVGEAALYGINFDDSEYDYTQHLKPIGLDPENSIFIASKGNEQKVEKKNIEDLFIEPKYRRDEIEKDDALPVFQRGMAKPEYLLHQQDTTDEIRGFKPDMNPALREVLEALEDEAYVVNDDVVVEDISKKTQLQGDNYGEEEKEDDIFAQLLGSGEAKDEDEFEDEFDEWDIDNVENFEDENYVKEMAQFDNIENLEDLENIDYQADVRRFQKDNSILEKHNSDDEFSNAGLDSVNPSEEEDVLGELPSIQDKSKTGKKKRKSRQKKGAMEDVEGFEMEEEAIARTETMTVLDDQYDQIINGYENYEEELEEDEEQNYQPFDMSAERSDFESMLDDFLDNYELESGGRKLAKKDKEIERLKEAADEVSKGKLSQRRNRERQEKKKLEKVTNTLSSLKF
B2: Ltv1.S6>A fused to the Gal4 activation domain (protein, UniProt P34078 1-463)
chain: MSKKFSSKNSQRYVVVHRPHDDPSFYDTDASAHVLVPVSNPNKTSPEADLRKKDVSSTKPKGRRAHVGEAALYGINFDDSEYDYTQHLKPIGLDPENSIFIASKGNEQKVEKKNIEDLFIEPKYRRDEIEKDDALPVFQRGMAKPEYLLHQQDTTDEIRGFKPDMNPALREVLEALEDEAYVVNDDVVVEDISKKTQLQGDNYGEEEKEDDIFAQLLGSGEAKDEDEFEDEFDEWDIDNVENFEDENYVKEMAQFDNIENLEDLENIDYQADVRRFQKDNSILEKHNSDDEFSNAGLDSVNPSEEEDVLGELPSIQDKSKTGKKKRKSRQKKGAMADVAGFAMAAAAIARTETMTVLDDQYDQIINGYENYEEELEEDEEQNYQPFDMSAERSDFESMLDDFLDNYELESGGRKLAKKDKEIERLKEAADEVSKGKLSQRRNRERQEKKKLEKVTNTLSSLKF
B3: Ltv1 fragment aa 333–412 fused to the Gal4 activation domain (domain or fragment, UniProt P34078 333-412)
chain: GAMSDVSGFSMSSSAIARTETMTVLDDQYDQIINGYENYEEELEEDEEQNYQPFDMSAERSDFESMLDDFLDNYELESGG
B4: Ltv1 fragment aa 160–296 fused to the Gal4 activation domain (domain or fragment, UniProt P34078 160-296)
chain: GFKPDMNPALREVLEALEDEAYVVNDDVVVEDISKKTQLQGDNYGEEEKEDDIFAQLLGSGEAKDEDEFEDEFDEWDIDNVENFEDENYVKEMAQFDNIENLEDLENIDYQADVRRFQKDNSILEKHNSDDEFSNAG
B5: Asc1 (endogenous) (protein, UniProt P38011 1-319)
chain: MASNEVLVLRGTLEGHNGWVTSLATSAGQPNLLLSASRDKTLISWKLTGDDQKFGVPVRSFKGHSHIVQDCTLTADGAYALSASWDKTLRLWDVATGETYQRFVGHKSDVMSVDIDKKASMIISGSRDKTIKVWTIKGQCLATLLGHNDWVSQVRVVPNEKADDDSVTIISAGNDKMVKAWNLNQFQIEADFIGHNSNINTLTASPDGTLIASAGKDGEIMLWNLAAKKAMYTLSAQDEVFSLAFSPNRYWLAAATATGIKVFSLDPQYLVDDLRPEFAGYSKAAEPHAVSLAWSADGQTLFAGYTDNVIRVWQVMTAN
B6: Rps20Δloop (in the pre-40S particles used for cryo-EM) (protein, UniProt P38701)
chain: MSDFQKEKVEEQEQQQQQIIKIRITLTSTKVKQLENVSSNIVKNAEQHNLVKKGPVRLPTKVLKISTWETYEMRIHKRYIDLEAPVQIVKRITQITIEPGVDVEVVVASN

Biological target: T1, Hrr25(1–394) fused to the Gal4 DNA-binding domain (S. cerevisiae)
Test: two-hybrid; baits fused to the GAL4 DNA-binding domain, preys fused to the GAL4 activation domain, co-transformed into reporter strain PJ69-4A; ten-fold serial dilutions spotted on SDC-Trp-Leu, SDC-Trp-Leu-His (growth: weak interaction) and SDC-Trp-Leu-Ade (growth: strong interaction)

binding | Binder
binds | B1
binds | B2

Biological target: T2, Hrr25(1–394).K38R fused to the Gal4 DNA-binding domain (S. cerevisiae)
Test: as above

binding | Binder
binds | B3
binds | B4
binds | B1
binds | B2

Biological target: T3, C-terminally TAP-tagged Tsr1 (S. cerevisiae)
Test: cryo-EM structure; pre-40S particles from rps20Δloop cells purified via Tsr1-TAP (lysis buffer with 5 mM MgCl2) and a 10–30% sucrose gradient; single particle analysis, classes C1-S20Δloop (3.47 Å) and C2-S20Δloop (3.79 Å); the partners stand in one ribonucleoprotein particle

binding | Binder
binds | B5
binds | B6
